“Also recorded” adds a separate entry of the source.

A short description of data set [1]: Preliminary diffusion study, wash-out of peptides from heparin:PEG10-4PBD1 gels in 96-well plate. As to conditions: for peptide recovered after 18 washes: 10% gels 2:1 heparin:PEG10-4PBD1, 1:4 peptide:heparin, PBS pH 7.4 washes.
Data set [2] can be described thus: Diffusion of heparin-binding peptides from heparin-based gels in dispodialyzers. As to conditions: for Initial Release Rate (% of total peptide released per day): 10% gels 1:2 heparin:PBD1-conjugated 4 arm PEG, 2 peptides per heparin, into PBS.
Setting [3] is: heparin gel in dispodialyzer, PBS.
[4] abbreviates: control: peptide-conjugated PEG and PBD3 alone, no heparin.

As for “FITC-A(β)AAFAKLAARLYRKAGC (AAAFAKLAARLYRKAGC; FITC-beta-Ala N-terminal) [PBD2]”, the “peptide recovered after 18 washes” value in data set [1] is “about 60%”. The “Initial Release Rate (% of total peptide released per day)” value in data set [2] is on record as 1.3 % of total peptide released per day.

With “FITC-A(β)GGGGYGRKKRRQRRR (AGGGGYGRKKRRQRRR; FITC-beta-Ala N-terminal) [TAT, reference compound]”, in data set [2], the “Initial Release Rate (% of total peptide released per day)” value is 0.04 % of total peptide released per day. The “peptide recovered/released after 2 weeks” value in data set [2] (setting [3]) is recorded as “Almost none; also recorded: did not release”.

Regarding “FITC-A(β)KAFAALAARLYRKAGC (AKAFAALAARLYRKAGC; N-terminal FITC-beta-alanine) [PBD3, PBD3 control is the same peptide tested without heparin]”, in data set [1], the “peptide recovered after 18 washes” value is “approximately 80%”. For the same substance, the “peptide recovered after 18 washes, control solutions” value in data set [1] (control: PEG10-4PBD1 and PBD3 without heparin) is given as “all”. Also, in data set [2], the “Initial Release Rate (% of total peptide released per day)” value was 3.4 % of total peptide released per day. In data set [2] (setting [4]), the “Initial Release Rate (% of total peptide released per day), control without heparin” value is 25 % of total peptide released per day and the “release rate, control without heparin (in words)” value is “fast rate”. For the same substance, in data set [2] (gels containing heparin), the “diffusion rate out of heparin gel (in words)” value is “faster diffusion rate than PBD2”.

RGDS [reference compound]: the “Initial Release Rate (% of total peptide released per day)” value in data set [2] was 93 % of total peptide released per day. Also, the “peptide released after one day” value in data set [2] (setting [3]) is on record as “almost all”.
